This experiment has as its target human PVRIG on the cell surface (human) (UniProt Q6DKI7). Put plainly: flow cytometry on CHO-huPVRIG cells. (In general: In flow cytometry, cells or beads pass a laser one at a time.)

Chains of the proteins cited; added tags and fusions are not shown. Lines headed by an entry give the natural chain unless they say otherwise; changes in a name come on top.
UniProt Q6DKI7: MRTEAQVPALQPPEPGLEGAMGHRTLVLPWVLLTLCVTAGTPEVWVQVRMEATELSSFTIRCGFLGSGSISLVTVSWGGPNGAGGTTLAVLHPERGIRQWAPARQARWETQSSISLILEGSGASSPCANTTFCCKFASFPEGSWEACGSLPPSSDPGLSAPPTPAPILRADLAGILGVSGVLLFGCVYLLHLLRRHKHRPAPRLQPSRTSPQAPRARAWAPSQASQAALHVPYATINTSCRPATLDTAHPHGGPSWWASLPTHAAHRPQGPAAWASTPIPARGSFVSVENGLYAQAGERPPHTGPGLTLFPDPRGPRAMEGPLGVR

These are yes or no findings as the source states them, for the method shown. A result given as binding can be weak or reduced; the word gives no strength.

B1: ADI-56249-G1LALA (antibody, human IgG1, kappa, L234A L235A, V domains shown)
VH: QVQLVQSGAEVKKPGSSVKVSCKASGGTFSTFAISWVRQAPGQGLEWMGDIIPIFGSNYAQKFQGRVTITADESTSTAYMELSSLRSEDTAVYYCARGPLEGKVSPFDIWGQGTMVTVSS
VL: DIVMTQSPLSLPVTPGEPASISCRSSQSLLHSTGYNYLDWYLQKPGQSPQLLIYVGSTRASGVPDRFSGSGSGTDFTLKISRVEAEDVGVYYCMQERQFPITFGGGTKVEIKR
Take B1: the binding result is given as “binds”.
